The target of the assay is T1, myc-tagged full-length ZNF198 (human) (UniProt Q9UBW7).
T1 sequence: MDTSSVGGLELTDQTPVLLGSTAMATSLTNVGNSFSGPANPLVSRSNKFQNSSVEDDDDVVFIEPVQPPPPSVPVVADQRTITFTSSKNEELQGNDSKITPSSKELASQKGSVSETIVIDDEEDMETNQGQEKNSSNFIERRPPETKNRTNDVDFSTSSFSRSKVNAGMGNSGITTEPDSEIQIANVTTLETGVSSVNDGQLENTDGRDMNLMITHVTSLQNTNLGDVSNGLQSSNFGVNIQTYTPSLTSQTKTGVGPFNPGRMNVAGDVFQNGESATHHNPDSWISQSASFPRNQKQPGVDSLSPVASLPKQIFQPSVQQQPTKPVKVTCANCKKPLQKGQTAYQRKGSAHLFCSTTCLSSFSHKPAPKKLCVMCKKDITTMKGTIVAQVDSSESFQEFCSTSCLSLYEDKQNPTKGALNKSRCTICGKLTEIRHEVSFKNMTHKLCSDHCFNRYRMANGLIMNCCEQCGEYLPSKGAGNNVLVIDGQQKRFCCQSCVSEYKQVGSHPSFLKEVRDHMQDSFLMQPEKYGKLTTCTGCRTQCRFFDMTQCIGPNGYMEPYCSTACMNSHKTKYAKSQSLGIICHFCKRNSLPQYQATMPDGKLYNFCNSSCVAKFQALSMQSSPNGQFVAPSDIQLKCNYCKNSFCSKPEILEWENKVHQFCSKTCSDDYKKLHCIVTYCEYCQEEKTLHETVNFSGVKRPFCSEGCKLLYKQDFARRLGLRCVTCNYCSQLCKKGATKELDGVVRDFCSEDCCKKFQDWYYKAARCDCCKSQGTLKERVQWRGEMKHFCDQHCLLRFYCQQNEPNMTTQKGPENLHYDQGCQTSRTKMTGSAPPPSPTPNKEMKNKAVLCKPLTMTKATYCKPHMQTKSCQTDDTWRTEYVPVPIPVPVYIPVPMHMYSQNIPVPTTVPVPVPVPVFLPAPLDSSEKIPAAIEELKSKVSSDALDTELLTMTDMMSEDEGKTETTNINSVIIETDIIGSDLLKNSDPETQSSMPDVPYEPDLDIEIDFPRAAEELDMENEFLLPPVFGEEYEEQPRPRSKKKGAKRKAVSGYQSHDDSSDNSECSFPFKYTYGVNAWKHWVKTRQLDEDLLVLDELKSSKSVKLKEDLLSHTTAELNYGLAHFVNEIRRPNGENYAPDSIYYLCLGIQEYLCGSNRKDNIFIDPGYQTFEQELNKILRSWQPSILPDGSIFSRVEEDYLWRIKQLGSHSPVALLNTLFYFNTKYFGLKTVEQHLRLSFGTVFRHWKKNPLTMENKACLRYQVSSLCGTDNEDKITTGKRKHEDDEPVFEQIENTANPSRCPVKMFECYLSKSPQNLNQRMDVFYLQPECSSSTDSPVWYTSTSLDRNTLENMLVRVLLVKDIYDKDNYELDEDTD
The assay is described as follows: co-IP; myc-tagged ZNF198 and FLAG-tagged PML co-expressed in U2OS cells; anti-myc or anti-FLAG agarose; blots with anti-myc and anti-PML.

No constants are given. Whether binding was seen depends on the method and setting. In cells and extracts the contact can be indirect. Binding calls can cover weak binding; strength is not graded here. Where a sequence is shown, tags or fusion partners need not be part of it.

On to FLAG-tagged PML (isoform III), for which the binding result is “binds”.

(Values after article PMC4136804.)
